For part of these data: A negative result means that nothing was seen under these conditions. For part of these data: Tags and fusion partners may be left off the protein sequences shown.

Series [1] concerns coagulation factor Xa (FXa). The series can be described thus: inhibition of the protein.
Series [2] has as its system thrombin (F2) (Homo sapiens). The series can be described thus: inhibition of the protein. The settings on record: 2'-F pyrimidines, purified native protein, dose not given here.
Series [3] deals with coagulation factor VIIa (FVIIa). The series can be described thus: inhibition of the protein.
The target in series [4] is T1, angiopoietin-1 (Ang1*) (Homo sapiens) (UniProt Q15389).
T1 sequence (looked up, limits assumed): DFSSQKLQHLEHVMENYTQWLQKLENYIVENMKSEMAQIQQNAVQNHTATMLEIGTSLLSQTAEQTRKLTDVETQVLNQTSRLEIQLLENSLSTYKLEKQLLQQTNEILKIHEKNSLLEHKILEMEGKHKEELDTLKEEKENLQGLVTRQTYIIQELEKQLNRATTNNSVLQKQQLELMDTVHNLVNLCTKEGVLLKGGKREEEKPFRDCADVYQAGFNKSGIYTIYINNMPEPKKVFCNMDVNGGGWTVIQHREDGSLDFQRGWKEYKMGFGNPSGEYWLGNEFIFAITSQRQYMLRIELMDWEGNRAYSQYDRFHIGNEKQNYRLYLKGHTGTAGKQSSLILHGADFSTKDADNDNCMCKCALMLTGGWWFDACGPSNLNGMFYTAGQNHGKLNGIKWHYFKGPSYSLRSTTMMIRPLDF
The series can be described thus: activity in cells. Conditions: 2'-F pyrimidines; abrogates Tie2 autophosphorylation in 293 cells with 13 nM Ang1*; purified recombinant protein; protein details: Regeneron Pharmaceuticals.

Series [5] relates to coagulation factor IXa (FIXa). The series can be described thus: inhibition of the protein. The settings on record: 2'-F pyrimidines; 10 nM RNA inhibits FIXa/FVIIIa activation of FX, 37 C; prolongs aPTT; purified native protein.
A further series deals with T2, angiopoietin-2 (Ang2) (UniProt O15123).
T2 sequence (looked up, limits assumed): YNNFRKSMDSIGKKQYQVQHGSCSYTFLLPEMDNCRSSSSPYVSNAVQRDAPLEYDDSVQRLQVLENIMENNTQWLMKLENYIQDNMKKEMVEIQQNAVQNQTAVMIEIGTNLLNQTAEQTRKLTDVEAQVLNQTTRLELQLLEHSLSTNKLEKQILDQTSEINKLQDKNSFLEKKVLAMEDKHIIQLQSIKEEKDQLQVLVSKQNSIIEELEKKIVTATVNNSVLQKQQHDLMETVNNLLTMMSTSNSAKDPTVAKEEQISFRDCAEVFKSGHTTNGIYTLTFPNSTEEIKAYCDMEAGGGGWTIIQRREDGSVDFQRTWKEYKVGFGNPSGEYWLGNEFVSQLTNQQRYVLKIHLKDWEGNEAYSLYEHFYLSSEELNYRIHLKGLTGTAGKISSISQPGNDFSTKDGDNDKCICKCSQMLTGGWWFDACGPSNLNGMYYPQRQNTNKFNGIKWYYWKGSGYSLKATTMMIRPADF
The series can be described thus: activity in cells. The settings on record: 2'-F pyrimidines; increases endothelial apoptosis with 15 nM Ang2; purified recombinant protein.

Consider “GAGAGCCCCAGCGAGAUAAUACUUGGCCCCGCUCUU [11.F7t]”, for which the “functional effect of the aptamer” value in series [1] (2'-F pyrimidines, prolongs PT and APTT of human plasma, purified native protein, dose not given here) is “active”.
As to “GGGAACAAAGCUGAAGUACAAACCC [TOG 25 short BULGE Us]”, the “functional effect of the aptamer” value in series [2] (platelet activation about 90%, no inhibition, variant of TOG 25 short (TOGGLE-25t)) is reported as “not active”.
On to “GGGAACAAAGCUGAAGUACUUACCC [TOG 25 short (TOGGLE-25t)]”, for which the “functional effect of the aptamer” value in series [2] (platelet activation below 20%, variant of TOG 25 (TOGGLE-25)) is given as “active”.
“GGGAGAGAGGAAGAGGGAUGGGAAAAUAGCCCCAGCGAGAUAAUACUUGGCCCCGCUACUACCAUAACCCAGAGGUCGAUAGUACUGGAUCC [RNA 10.14]”: in series [1] (100 nM RNA inhibits FXa/FVa prothrombin activation, 37 C), the “functional effect of the aptamer” value is given as “active”.
With “GGGAGAGAGGAAGAGGGAUGGGAAGCUCCAUCCAAGCGACGACACGCUCGUCCCGAAAAGAAUCAUAACCCAGAGGUCGAU [10.15]”, in series [3] (2'-F pyrimidines, prolongs PT of human plasma, not APTT, purified native protein, dose not given here), the “functional effect of the aptamer” value was “active”.
On to “GGGAGAGAGGAAGAGGGAUGGGACUCGAACAUUUCCACUAACCAACCAUACUAAAGCACCGCCAUAACCCAGAGGUCGAUAGUACUGGAUCCCCCC [ANG9-4]”, for which the “functional effect of the aptamer” value in series [4] is “active”.
Consider “GGGAGAGAGGAAGAGGGAUGGGGACUAUACCGCGUAAUGCUGCCUCCCCAUUCCGGAACGCUCAUAACCCAGAGGUCGAUAGUACUGGAUCCCCCC [RNA 9.3]”, for which the “functional effect of the aptamer” value in series [5] is “active”.
For the sequence “GGGAGAGAGGAAGAGGGAUGGGUACAGAGGAGUACAAGUAGCAUGAUCCCCUCGUGUAAAAACAUAACCCAGAGGUCGAUAGUACUGGAUCCCCCC [RNA 16.3]”, in series [3] (2'-NH2 pyrimidines, 1 uM RNA inhibits FVIIa/TF activation of FX, 25 C), the “functional effect of the aptamer” value is on record as “active”.
With “GGGAGGACGAUGCGGACUAGCCUCAUCAGCUCAUGUGCCCCUCCGCCUGGAUCACCAGACGACUCGCUGAGGAUCCGAGA [ANG11-1]”, the “functional effect of the aptamer” value in the series with angiopoietin-2 (Ang2) is reported as “active”.

(Values after patent US20030175703.)
